According to patent US5225583A, “Alkyl-aryl 1,3-propanedione silicone derivative and an external preparation for skin with the derivative compounded therein” (Shiseido Co., Ltd., priority 1991, dated 1993):

Tested on: skin
Assay: Test for water resisting property (rate of compound remaining on the skin)
Assay type: in vivo, human (male panels)
Details: 3 g in 97 g Silicone KF 56, 2 minutes in water at 30°+2° C.; for Rate of compound remaining on the skin, Average: Average of 10 panels

SMILES	Rate of compound remaining on the skin, Average	Rate of compound remaining on the skin (Panel A)	Rate of compound remaining on the skin (Panel B)	Rate of compound remaining on the skin (Panel C)	Rate of compound remaining on the skin (Panel D)	Rate of compound remaining on the skin (Panel E)	Rate of compound remaining on the skin (Panel F)	Rate of compound remaining on the skin (Panel G)	Rate of compound remaining on the skin (Panel H)	Rate of compound remaining on the skin (Panel I)	Rate of compound remaining on the skin (Panel J)
CCCCC(CC)C(=O)CC(=O)c1cc(CCC[Si](C)(O[Si](C)(C)C)O[Si](C)(C)C)c(OC)c(OC)c1 (centres unmarked) [Compound 5]	100.0%	98.6%	101.3%	98.8%	99.9%	99.8%	99.9%	102.5%	101.3%	97.8%	99.8%
COc1cc(C(=O)CC(=O)C(C)(C)C)ccc1OCCC[Si](C)(C)O[Si](C)(C)C [Compound 1]	97.1%	97.4%	95.7%	97.8%	97.3%	96.5%	98.9%	95.9%	96.8%	97.5%	96.7%
CCCCC(CC)COC(=O)c1ccc(N(C)C)cc1 (centres unmarked) [Comparison, reference compound]	83.0%	82.3%	80.6%	84.5%	79.8%	80.3%	83.8%	89.2%	80.4%	83.9%	85.1%
COc1cc(C(=O)CC(=O)C(C)(C)C)ccc1OCCC[Si](C)(O[Si](C)(C)C)O[Si](C)(C)C [Compound 2]	99.4%	98.9%	101.3%	98.6%	99.3%	99.3%	98.9%	99.3%	99.9%	98.9%	99.4%
